This note sets out measurements from publication PMC4974476, “Structural basis for LIN54 recognition of CHR elements in cell cycle-regulated promoters”.

Weaker means in comparison with the reference protein, sequence or condition of that experiment. Where a protein sequence is shown, tags need not be part of it.

This data set has as its target T1, LIN54 DBD-N (Homo sapiens) (UniProt Q6MZP7).
T1 sequence (looked up): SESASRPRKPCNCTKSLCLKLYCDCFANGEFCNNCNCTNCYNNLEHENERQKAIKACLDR
The experiment in a line: NMR HSQC titration. As to conditions: 35 mM MES, 75 mM NaCl, pH 6.0, 25 C, NMR: 35 mM MES, 5% D2O, recombinant protein, residues 515-574, protein details: N-terminal GST with TEV site, cleaved.

Consider GAGTTTGAAACTG (double strand) [CHR13], for which the binding result was “binds more weakly”.
